PubChem BioAssay AID504791, Drosophila RNAi Screening Center | 2011

Aim: 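Genes of the fly required for silencing by miRNA, siRNA or endo-siRNA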 (primary screen)
System: Drosophila S2-derived reporter cells
Knock-down reagent: long dsRNA against Drosophila genes, about 150-250 ng dsRNA per well (siRNA assay); about 80-120 ng (miRNA assay)
Timing: about 5 days (siRNA assay); about 4 days (miRNA assay)
Treatment: copper sulfate induction of reporters: 25 µM (siRNA assay); 200 mM stated (miRNA assay), 1-2 days before reading
Detection: 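Per-well ratio of Renilla over firefly light, expressed relative to that plate's average ratio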
Active means: 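First-pass picks had plate-scaled ratios over 1.5 for the siRNA assay, over 1.6 for the miRNA assay, or under 0.6; two distinct dsRNAs had to score alike on retest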
The deposit covers about 23,000 reagents; this is an unselected part of those that have a named target and a result. Of all reagents, 199 (0.86%) are marked active. 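Plate-scaled ratios behind the calls are not deposited; printed light signals are raw; many rows marked increased or decreased are still called inactive.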 A number with no mark means an inactive call. Names joined by + are all predicted targets of the reagent. No sequences are given here. Not given: the direction of the score.

What is on record for CG44838 [DRSC10330]?
stable siRNA reporter change: reporter ratio raised past the hit cutoff; stable assay Renilla, run 1 (luminescence): 5347; stable assay firefly, run 1 (luminescence): 1.78e5

How did the screen score CG44838 [DRSC10371]?
stable assay Renilla, run 1 (luminescence): 8574; stable assay firefly, run 1 (luminescence): 3.70e5

With M6 [DRSC11869], what does the deposit list?
stable assay Renilla, run 1 (luminescence): 6428; stable assay firefly, run 1 (luminescence): 3.89e5

What is on record for CG13949 [DRSC00367]?
stable assay Renilla, run 1 (luminescence): 3279; stable assay firefly, run 1 (luminescence): 3.26e5

For CG32720 [DRSC17529], what does the deposit list?
stable assay Renilla, run 1 (luminescence): 4783; stable assay firefly, run 1 (luminescence): 4.45e5

What did the screen give for Cyp6d2 [DRSC04606]?
stable assay Renilla, run 1 (luminescence): 4850; stable assay firefly, run 1 (luminescence): 3.43e5

With CG14667 [DRSC12253], how do the results read?
stable assay Renilla, run 1 (luminescence): 7202; stable assay firefly, run 1 (luminescence): 3.87e5

For CG6083 [DRSC10580], what does the deposit list?
stable assay Renilla, run 1 (luminescence): 7647; stable assay firefly, run 1 (luminescence): 5.00e5

What did the screen give for RabGGTa [DRSC12189]?
stable assay Renilla, run 1 (luminescence): 7750; stable assay firefly, run 1 (luminescence): 4.76e5

Laid out differently: results already given.
{"target gene":"Cyp6d2","DRSC id":"DRSC04606","stable assay Renilla, run 1 (luminescence)":4850,"stable assay firefly, run 1 (luminescence)":3.43e5}
{"target gene":"CG14667","DRSC id":"DRSC12253","stable assay Renilla, run 1 (luminescence)":7202,"stable assay firefly, run 1 (luminescence)":3.87e5}

Continued.
With asRNA:CR42547 + CG15674 [DRSC04264], what does the deposit list?
stable assay Renilla, run 1 (luminescence): 6839; stable assay firefly, run 1 (luminescence): 3.72e5

What is on record for Tdh [DRSC11788]?
stable siRNA reporter change: reporter ratio lowered past the hit cutoff; stable assay Renilla, run 1 (luminescence): 4810; stable assay firefly, run 1 (luminescence): 3.67e5

What is on record for Or65b [DRSC08809]?
stable assay Renilla, run 1 (luminescence): 4343; stable assay firefly, run 1 (luminescence): 4.33e5

With Dpp10 [DRSC00942], what was measured?
stable assay Renilla, run 1 (luminescence): 5255; stable assay firefly, run 1 (luminescence): 4.29e5

What did the screen give for Dpp10 [DRSC02139]?
stable assay Renilla, run 1 (luminescence): 6995; stable assay firefly, run 1 (luminescence): 4.11e5

With JMJD7 [DRSC09703], what does the deposit list?
stable assay Renilla, run 1 (luminescence): 5354; stable assay firefly, run 1 (luminescence): 5.25e5

How did the screen score hbn [DRSC04082]?
stable assay Renilla, run 1 (luminescence): 5288; stable assay firefly, run 1 (luminescence): 2.20e5

For hbn [DRSC04238], what does the deposit list?
stable assay Renilla, run 1 (luminescence): 6251; stable assay firefly, run 1 (luminescence): 4.68e5

For hbn [DRSC04239], what does the deposit list?
stable assay Renilla, run 1 (luminescence): 5806; stable assay firefly, run 1 (luminescence): 3.64e5

What did the screen give for hbn [DRSC22436]?
stable assay Renilla, run 1 (luminescence): 3572; stable assay firefly, run 1 (luminescence): 3.64e5

With rhea [DRSC11300], what does the deposit list?
stable assay Renilla, run 1 (luminescence): 6675; stable assay firefly, run 1 (luminescence): 4.38e5

How did the screen score kug [DRSC10911]?
stable assay Renilla, run 1 (luminescence): 8414; stable assay firefly, run 1 (luminescence): 3.21e5

What did the screen give for CG33160 [DRSC08197]?
stable assay Renilla, run 1 (luminescence): 5499; stable assay firefly, run 1 (luminescence): 3.51e5

For CG4835 [DRSC10452], what does the deposit list?
stable siRNA reporter change: reporter ratio raised past the hit cutoff; stable assay Renilla, run 1 (luminescence): 5690; stable assay firefly, run 1 (luminescence): 1.70e5

What did the screen give for Toll-4 [DRSC03458]?
stable assay Renilla, run 1 (luminescence): 7837; stable assay firefly, run 1 (luminescence): 3.79e5

For Twdlalpha [DRSC19914], how do the results read?
stable assay Renilla, run 1 (luminescence): 6003; stable assay firefly, run 1 (luminescence): 4.86e5

How did the screen score ds [DRSC00815]?
stable assay Renilla, run 1 (luminescence): 7823; stable assay firefly, run 1 (luminescence): 4.31e5

What did the screen give for CG18789 [DRSC02696]?
stable assay Renilla, run 1 (luminescence): 7956; stable assay firefly, run 1 (luminescence): 4.58e5

Which result is listed for Neu2 [DRSC11819]?
stable assay Renilla, run 1 (luminescence): 7604; stable assay firefly, run 1 (luminescence): 4.68e5
